Reference: patent publication US20210130339A1, “COMPOUNDS” (GLAXOSMITHKLINE INTELLECTUAL PROPERTY DEVELOPMENT LIMITED, priority 2017, published 2021)
Some results were stated once for a whole list of compounds, not compound by compound.

Chains of the proteins cited; added tags and fusions are not shown. A line that says so, or that is headed by a name, gives the form on record, which may keep a tag or linker.
UniProt Q5S007, with tags, fused parts or gaps R50H: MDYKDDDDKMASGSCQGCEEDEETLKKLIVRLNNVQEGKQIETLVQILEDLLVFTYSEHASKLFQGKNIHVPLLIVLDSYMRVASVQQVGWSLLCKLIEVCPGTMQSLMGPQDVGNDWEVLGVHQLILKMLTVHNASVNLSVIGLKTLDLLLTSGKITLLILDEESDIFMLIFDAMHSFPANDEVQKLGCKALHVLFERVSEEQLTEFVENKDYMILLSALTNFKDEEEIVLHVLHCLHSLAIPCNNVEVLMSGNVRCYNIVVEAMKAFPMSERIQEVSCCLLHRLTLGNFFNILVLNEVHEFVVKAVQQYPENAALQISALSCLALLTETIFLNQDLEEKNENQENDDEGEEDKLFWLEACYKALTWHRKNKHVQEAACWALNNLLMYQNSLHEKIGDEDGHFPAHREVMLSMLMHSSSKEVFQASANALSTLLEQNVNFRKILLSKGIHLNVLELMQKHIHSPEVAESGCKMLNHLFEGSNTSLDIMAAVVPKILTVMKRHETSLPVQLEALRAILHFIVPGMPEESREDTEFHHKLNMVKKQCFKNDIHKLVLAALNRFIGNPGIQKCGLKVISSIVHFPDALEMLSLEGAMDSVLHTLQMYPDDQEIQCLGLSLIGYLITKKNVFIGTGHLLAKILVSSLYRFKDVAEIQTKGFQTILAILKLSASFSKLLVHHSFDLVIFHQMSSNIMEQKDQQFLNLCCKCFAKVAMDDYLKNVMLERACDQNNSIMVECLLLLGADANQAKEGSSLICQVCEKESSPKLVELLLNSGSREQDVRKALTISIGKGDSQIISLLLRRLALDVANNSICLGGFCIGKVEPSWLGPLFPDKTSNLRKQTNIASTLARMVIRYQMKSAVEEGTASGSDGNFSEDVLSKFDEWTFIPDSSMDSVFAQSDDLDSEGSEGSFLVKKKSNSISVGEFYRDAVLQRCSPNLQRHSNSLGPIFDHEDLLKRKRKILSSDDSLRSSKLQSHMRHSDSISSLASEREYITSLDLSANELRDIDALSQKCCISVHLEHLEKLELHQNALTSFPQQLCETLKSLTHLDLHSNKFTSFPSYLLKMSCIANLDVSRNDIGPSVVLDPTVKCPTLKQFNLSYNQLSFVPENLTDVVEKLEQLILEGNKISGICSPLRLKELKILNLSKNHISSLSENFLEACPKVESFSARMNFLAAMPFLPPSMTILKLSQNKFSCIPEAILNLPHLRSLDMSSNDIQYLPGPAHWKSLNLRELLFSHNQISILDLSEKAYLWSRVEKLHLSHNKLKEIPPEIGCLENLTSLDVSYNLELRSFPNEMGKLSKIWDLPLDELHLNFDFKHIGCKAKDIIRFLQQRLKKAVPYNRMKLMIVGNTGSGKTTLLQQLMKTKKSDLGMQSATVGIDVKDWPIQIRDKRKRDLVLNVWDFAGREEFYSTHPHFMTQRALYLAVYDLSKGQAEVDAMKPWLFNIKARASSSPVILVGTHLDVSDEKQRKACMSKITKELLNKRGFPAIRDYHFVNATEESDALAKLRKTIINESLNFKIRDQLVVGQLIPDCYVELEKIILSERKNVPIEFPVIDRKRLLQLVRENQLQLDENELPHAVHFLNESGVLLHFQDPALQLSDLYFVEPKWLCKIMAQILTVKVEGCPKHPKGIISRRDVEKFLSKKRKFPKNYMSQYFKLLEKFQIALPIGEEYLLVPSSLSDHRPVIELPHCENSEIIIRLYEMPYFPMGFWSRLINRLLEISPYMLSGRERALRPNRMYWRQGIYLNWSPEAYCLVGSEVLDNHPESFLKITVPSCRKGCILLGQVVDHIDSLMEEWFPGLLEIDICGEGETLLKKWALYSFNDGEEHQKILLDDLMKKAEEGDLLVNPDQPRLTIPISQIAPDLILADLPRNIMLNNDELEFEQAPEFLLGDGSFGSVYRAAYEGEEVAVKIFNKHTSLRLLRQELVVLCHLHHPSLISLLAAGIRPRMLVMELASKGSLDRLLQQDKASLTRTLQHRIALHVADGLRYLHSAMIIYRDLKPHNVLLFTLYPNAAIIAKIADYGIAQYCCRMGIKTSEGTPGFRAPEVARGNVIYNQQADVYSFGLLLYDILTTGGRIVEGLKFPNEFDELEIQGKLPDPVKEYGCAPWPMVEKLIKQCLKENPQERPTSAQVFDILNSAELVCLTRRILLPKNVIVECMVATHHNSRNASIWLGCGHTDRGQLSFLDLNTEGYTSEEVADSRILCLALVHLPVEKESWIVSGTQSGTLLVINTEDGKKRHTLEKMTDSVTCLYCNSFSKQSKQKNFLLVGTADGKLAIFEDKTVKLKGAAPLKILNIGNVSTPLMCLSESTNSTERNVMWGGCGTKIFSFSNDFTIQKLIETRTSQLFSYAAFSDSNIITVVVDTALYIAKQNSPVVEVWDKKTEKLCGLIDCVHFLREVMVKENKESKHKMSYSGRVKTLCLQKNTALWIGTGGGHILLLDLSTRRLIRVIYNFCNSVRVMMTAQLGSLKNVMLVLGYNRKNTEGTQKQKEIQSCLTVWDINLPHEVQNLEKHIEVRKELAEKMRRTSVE

What was measured:
[1] = target: T1, Full length G2019 human LRRK2 (Homo sapiens, UniProt Q5S007); experiment: Full length G2019 human LRRK2 Inhibition Mass Spectrometry assay; format: biochemical; conditions: LRRKtide substrate, RapidFire mass spectrometry
T1 construct: purified recombinant Full length Flag-LRRK2 in assay buffer; made in house; host or cells: HEK293 6E cells transduced with BacMam virus (virus generated in Sf9 cells)
Description: a. Full Length G2019 Human LRRK2 Inhibition Mass Spectrometry Assay
This assay for Leucine Rich Repeat Kinase 2 (LRRK2) inhibition is based on the direct measurement of the peptide ‘LRRKtide’ (LRRKtide: RLGRDKYKT*LRQIRQ and “*” refers to the site of phosphorylation.) and phosphorylated ‘LRRKtide’ using a high throughput RapidFire mass spectrometry assay. Inhibitors are compounds that reduce the conversion of LRRKtide to phospho-LRRKtide.
HEK293 6E cells were incubated in a 37° C. incubator with a humidified atmosphere of 5% CO2 on an orbital shaker rotating at 110 rpm. On the day of transduction, the cell viability was higher than 98% and the cell density was in the range of 1×10^6˜1.5×10^6 cells/ml. HEK293 6E cells were centrifuged at 1,000 rpm for 10 min, and then the cells were resuspended in fresh Freestyle 293 expression medium (Invitrogen:12338) with 0.1% F-68 (Invitrogen:24040-032) but without antibiotics (G418) at density of 1×10^6 cells/ml. BacMam virus with Flag-hu LRRK2 (genotypically normal) gene was centrifuged at 40,000 g for 2 hours, then resuspended in fresh Freestyle 293 expression medium. The resuspended virus was added into the cells in at MOI of 10. The cells were incubated in a 37° C. incubator with a humidified atmosphere of 5% CO2 in air on an orbital shaker rotating at 110 rpm. Cultures were harvested at approximately 48 hours post-transduction by centrifugation at 4,000 rpm for 20 min and pellets were frozen for purification.
The suspended cells were lysed by sonication on ice for 30 min (2 secs on/4 sec off, 20% amplitude), and centrifuged at 10,000 rpm for 30 minutes at 4° C. The supernatant was incubated with 1 mL per litre of cell culture of anti-Flag magnetic beads (Sigma-Aldrich: M8823) at 4° C. for 3 hours, then the beads were washed by 5 mL (5 column volume) binding buffer (50 mM Tris pH7.5@ 4C, 500 mM NaCl, 0.5 mM EDTA, 0.1% TritonX-100, 10% glycerol, freshly add 2 mM DTT) for three times. The Flag tagged LRRK2 proteins were eluted by Elution buffer (50 mM Tris pH7.5@ 4C, 500 mM NaCl, 0.5 mM EDTA, 0.1% TritonX-100, 10% glycerol, freshly add 2 mM DTT, 250 ug/ml Flag peptide (Sigma-Aldrich:F3290)) at 4° C. for 2 hours. Flag peptide was removed by Zeba Spin Desalting Columns, 7K MWCO (Thermo-Fisher: 89893) and the buffer of eluted LRRK2 proteins was exchanged into Storage Buffer (50 mM Tris pH7.5@4C, 150 mM NaCl, 0.5 mM EDTA, 0.02% Triton X-100, 2 mM DTT and 50% Glycerol) using Amicon Ultra Centrifugal Filter Units (100 kD) (Merck: UFC910096). Fractions containing LRRK2 proteins were pooled, aliquoted and stored at −80° C. Protein concentration was determined by Bradford protein assay, and protein purity was analyzed by NuPAG Novex 4-12% Bis-Tris Protein Gels (Invitrogen: NP0322BOX). […]

[2] = target: T2, recombinant full length LRRK2 (Homo sapiens, UniProt Q5S007); experiment: Recombinant cellular LRRK2 AlphaScreen assay; format: cell-based; conditions: LRRK2 Ser935 phosphorylation, SH-SY5Y cells over-expressing recombinant full length LRRK2
T2 construct: A BacMam virus expressing full length recombinant LRRK2 was purchased from Invitrogen; host or cells: SH-SY5Y human neuroblastoma cells transduced with BacMam LRRK2 virus (MOI 50)
Description: b. Recombinant Cellular LRRK2 AlphaScreen Assay
To determine the activity of compounds against LRRK2 kinase activity in cells, the observed LRRK2 kinase-dependent modulation of LRRK2 Ser 935 phosphorylation (Dzamko et al., 2010, Biochem. J. 430: 405-413) was utilized to develop a quantitative 384 well plate-based immunoassay of LRRK2 Ser935 phosphorylation in the human neuroblastoma cell line SH-SY5Y, engineered to over-express recombinant full length LRRK2 protein. A BacMam virus expressing full length recombinant LRRK2 was purchased from Invitrogen and amplified by inoculation of SF-9 cells at MOI 0.3 for 4-5 days in Sf-900 III SFM medium supplemented with 3% fetal bovine serum. Infected cell cultures were then centrifuged at 2000 g for 20 minutes, viral supernatant titer determined by anti-gp64 plaque assay and stored at 4° C. Affinity-purified anti-phospho LRRK2 Ser935 sheep polyclonal antibody (Dzamko et al., 2010, Biochem. J. 430: 405-413) was biotinylated by standard methods (PerkinElmer). Anti-LRRK2 rabbit polyclonal antibody was purchased from Novus Biologicals. AlphaScreen Protein A IgG Kit (including acceptor and donor beads) was purchased from Perkin Elmer. SH-SY5Y cells were grown in DMEM/F12 medium with 10% dialysed fetal bovine serum and harvested by treatment with 0.5% trypsin-EDTA for 5 minutes at 37° C. followed by centrifugation at 1000 rpm for 4 minutes. […]

Row | Compound | pIC50 in the Full length G2019 human LRRK2 Inhibition Mass Spectrometry assay [1] | pIC50 in the recombinant cellular LRRK2 AlphaScreen assay [2]
1 | COc1nc(N2CCO[C@H](CO)C2)cc(-n2ncc3cc(C)c(C4CCN(C5CCOC5)CC4F)cc32)n1 (single isomer, unassigned) [Example E122] | ≥ 7.0 | 
2 | COc1nc(N2CCO[C@H](CO)C2)cc(-n2ncc3cc(C)c(C4CCN(C5CCOC5)CC4F)cc32)n1 (single isomer, unassigned) [Example E121] | ≥ 7.0 | 
3 | Cc1nc(N2CC(C)(O)C2)cc(-n2ncc3cc(Cl)c(C4CCN(C5CCOC5)CC4)cc32)n1 (single isomer, unassigned) [Example E127, 1-(6-(5-chloro-6-(1-(tetrahydrofuran-3-yl)piperidin-4-yl)-1H-indazol-1-yl)-2-methyl-pyrimidin-4-yl)-3-methylazetidin-3-ol] |  | ≥ 6
4 | COc1nc(N2CCO[C@H](CO)C2)cc(-n2ncc3cc(C)c(C4CCN(C5CCOC5)CC4F)cc32)n1 (single isomer, unassigned) [Example E123] | ≥ 7.0 | 
5 | Cc1nc(N2CCO[C@@H](CO)C2)cc(-n2ncc3cc(Cl)c(C4CCN(C5CCOC5)CC4)cc32)n1 (single isomer, unassigned) [Example E129] | ≥ 7.0 | 
